Experimental data reported in the supplement of paper PMC10689618.
This is one part of the list. Single values are uncertain, as repeats are few or missing.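 Labelled rat cortical synaptosomes were engulfed by primary human fetal astrocytes. Engulfment equaled a red/green ratio, corrected for calcein live-cell signal and normalized to the plate median. Compounds were toxic when calcein dropped over 30%, and reduced phagocytosis when below 70% of the median above 5 µM.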

test system: Human fetal astrocytes; assay: synaptosome phagocytosis (pHrodo/calcein intensity ratio) relative to plate median of data wells; higher = more phagocytosis; conditions: 2.78 µM; 24 h

SMILES | synaptosome phagocytosis
CN(C)CCc1c[nH]c2ccc(Cn3cncn3)cc12 | 89%
O=Cc1ccccc1O[C@@H]1O[C@H](CO)[C@@H](O)[C@H](O)[C@H]1O | 86.8%
CS(=O)(=O)OCCCCOS(C)(=O)=O [GT 41 X 149 Mablin CB 2041 G.T. 41 GT 2041 Mileran Myleran] | 91%
C1CCC(C(CC2CCCCN2)C2CCCCC2)CC1 (stereo unspecified) | 54.6%
NCCC(=O)c1ccccc1N | 79.9%
Nc1ccc(S(=O)(=O)Nc2ncccn2)cc1 | 130%
CNc1ccccc1C(=O)N1CCc2c([nH]c3ccccc23)C1=O | 54.7%
CN(C)CCOC(=O)C(c1ccccc1)C1(O)CCCC1 (stereo unspecified) | 108%
CC(C)/C(O)=C1/C(=O)O[C@@H](c2ccoc2)[C@]2(C)C(O)[C@@H](O)[C@@]34OC5(C)OC67CC(C)(C(O)[C@]6(O)[C@@H](O)[C@]3(O5)C12)[C@H](CC(=O)O)[C@]74C (stereo partly specified) | 94.7%
CC1Cc2ccccc2N1NC(=O)c1ccc(Cl)c(S(N)(=O)=O)c1 (stereo unspecified) | 124%
O=C(/C=C/C=C/c1ccc2c(c1)OCO2)N1CCCCC1 | 93.7%
C1N2CN3CN1CN(C2)C3 | 96.6%
CC1(C)[C@@H](O)CC[C@]2(C)[C@H]3C(=O)C=C4[C@H]5C[C@@](C)(C(=O)O)CC[C@]5(C)CC[C@@]4(C)[C@]3(C)CC[C@@H]12 [18alpha-GLYCYRRHETINIC ACID] | 91.4%
COc1ccc([C@H]2Oc3cc(OC)cc(OC)c3C[C@H]2O)cc1 | 126%
O=c1[nH]cnc2nc[nH]c12 | 93.4%
CC[C@H]1OC(=O)C[C@@H](O)[C@H](C)[C@@H](O[C@@H]2O[C@H](C)[C@@H](O)[C@H](N(C)C)[C@H]2O)[C@@H](CCN2C[C@H](C)C[C@H](C)C2)C[C@@H](C)C(=O)/C=C/C(C)=C/[C@@H]1CO[C@@H]1O[C@H](C)[C@@H](O)[C@@H](OC)[C@H]1OC | 105%

In the list so far, these have sulfur:
SMILES | synaptosome phagocytosis
CS(=O)(=O)OCCCCOS(C)(=O)=O [GT 41 X 149 Mablin CB 2041 G.T. 41 GT 2041 Mileran Myleran] | 91%
Nc1ccc(S(=O)(=O)Nc2ncccn2)cc1 | 130%
CC1Cc2ccccc2N1NC(=O)c1ccc(Cl)c(S(N)(=O)=O)c1 (stereo unspecified) | 124%
